# The inconclusive results got no clear call from the source; some entries with a clear call stand among them for comparison. Where the call is inconclusive, the potency comes from a doubtful curve fit. The source made the active and inactive calls. Rule for the calls: active = hit-call score of the fitted dose curve at least 0.9, where 1 is the maximum; inconclusive = response in the unintended direction; inactive = score below 0.9.
# Sequences of proteins named here, by UniProt entry; tags and fusion partners are left off.
# UniProt P00185, whole entry, looked up: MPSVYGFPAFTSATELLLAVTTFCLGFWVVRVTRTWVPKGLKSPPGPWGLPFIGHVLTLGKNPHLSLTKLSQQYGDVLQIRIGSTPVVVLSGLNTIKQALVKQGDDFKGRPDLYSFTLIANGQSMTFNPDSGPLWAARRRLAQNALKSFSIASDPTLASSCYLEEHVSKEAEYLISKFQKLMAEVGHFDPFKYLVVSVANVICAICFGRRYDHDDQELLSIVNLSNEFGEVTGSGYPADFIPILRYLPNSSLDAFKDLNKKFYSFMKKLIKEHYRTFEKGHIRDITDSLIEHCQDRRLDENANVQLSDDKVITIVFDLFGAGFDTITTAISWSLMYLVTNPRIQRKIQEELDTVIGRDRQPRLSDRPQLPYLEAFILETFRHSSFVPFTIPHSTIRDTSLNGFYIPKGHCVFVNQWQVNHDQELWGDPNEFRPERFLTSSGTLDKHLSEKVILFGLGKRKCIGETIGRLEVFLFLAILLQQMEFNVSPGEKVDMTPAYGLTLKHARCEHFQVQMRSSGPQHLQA
# Molecular target: rat CYP1A1, Cyp1a1 (gene 24296) (UniProt P00185)
# Experiment: NVS_ADME_rCYP1A1: NovaScreen (NVS) CYP450-related Enzyme Activity (ADME) Assay for rat CYP1A1
# Experimental: NVS_ADME_rCYP1A1 is a biochemical, single-readout assay that uses extracted gene-proteins from baculovirus-insect cells in a cell-free assay. Measurements were taken 1 hour after chemical dosing in a 96-well plate.NVS_ADME_rCYP1A1 is one of one assay component(s) measured or calculated from the NVS_ADME_rCYP1A1 assay. It is designed to make measurements of enzyme activity, a form of enzyme reporter, as detected with fluorescence intensity signals by Fluorescence technology.Data from the assay component NVS_ADME_rCYP1A1 was analyzed into 1 assay endpoint. This assay endpoint, NVS_ADME_rCYP1A1, was analyzed in the positive analysis fitting direction relative to Acetonitrile as the negative control and baseline of activity. Using a type of enzyme reporter, loss-of-signal activity can be used to understand changes in the enzymatic activity as they relate to the gene Cyp1a1. Furthermore, this assay endpoint can be referred to as a primary readout, because this assay has produced multiple assay endpoints where this one serves a enzymatic activity function. To generalize the intended target to other relatable targets, this assay endpoint is annotated to the cyp intended target family, where the subfamily is xenobiotic metabolism. […]
row,Compound,AC50
1,COc1nc(C)nc(NC(=O)NS(=O)(=O)c2ccccc2Cl)n1,inconclusive: 10 µM
2,CCCN(CCOc1c(Cl)cc(Cl)cc1Cl)C(=O)n1ccnc1,active: 2.23 µM

# Reference: PubChem BioAssay AID2283112 (EPA ToxCast)
